Measurements from publication PMC11111093.
These are yes or no findings as the source states them, for the method shown. In cells and extracts the contact can be indirect. These calls come from enrichment with a bait or labelling near it, and not all partners need be listed.

Target: T1, ADAP (adhesion and degranulation-promoting adapter protein), endogenous in iBMMs (mouse (endogenous in iBMMs)) (UniProt O35601)
T1 sequence: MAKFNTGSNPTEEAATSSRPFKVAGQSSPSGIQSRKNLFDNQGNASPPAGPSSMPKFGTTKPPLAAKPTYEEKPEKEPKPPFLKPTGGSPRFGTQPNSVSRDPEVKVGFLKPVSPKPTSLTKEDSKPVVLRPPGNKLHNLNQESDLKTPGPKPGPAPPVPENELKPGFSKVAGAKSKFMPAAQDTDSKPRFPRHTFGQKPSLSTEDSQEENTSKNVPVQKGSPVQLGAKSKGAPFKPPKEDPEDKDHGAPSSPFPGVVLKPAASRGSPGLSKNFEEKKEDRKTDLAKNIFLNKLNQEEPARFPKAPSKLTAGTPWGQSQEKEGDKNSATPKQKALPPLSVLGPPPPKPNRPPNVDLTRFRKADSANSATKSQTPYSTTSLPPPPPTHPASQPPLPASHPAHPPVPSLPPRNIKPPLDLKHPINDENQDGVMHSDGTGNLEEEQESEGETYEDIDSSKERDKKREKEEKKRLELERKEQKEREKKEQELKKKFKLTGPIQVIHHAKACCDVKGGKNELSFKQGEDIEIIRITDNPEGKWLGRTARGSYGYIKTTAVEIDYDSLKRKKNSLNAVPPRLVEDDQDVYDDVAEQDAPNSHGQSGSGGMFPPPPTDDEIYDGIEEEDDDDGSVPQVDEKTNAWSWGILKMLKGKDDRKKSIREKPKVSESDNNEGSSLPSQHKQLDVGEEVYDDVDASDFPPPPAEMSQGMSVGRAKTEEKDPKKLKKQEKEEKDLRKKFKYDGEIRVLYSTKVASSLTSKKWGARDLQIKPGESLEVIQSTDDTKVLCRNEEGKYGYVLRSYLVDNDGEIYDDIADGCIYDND
Assay: affinity purification with mass spectrometry; anti-ADAP immunoprecipitate from sucrose-gradient fractions 11-12 of iBMMs, eluted with 8 M urea, trypsin, LC-MS/MS (LTQ Orbitrap Elite)

B1: RIG-I (retinoic acid-inducible gene I), endogenous in iBMMs (protein, UniProt Q6Q899 1-926)
chain: MTAEQRQNLQAFRDYIKKILDPTYILSYMSSWLEDEEVQYIQAEKNNKGPMEAASLFLQYLLKLQSEGWFQAFLDALYHAGYCGLCEAIESWDFQKIEKLEEHRLLLRRLEPEFKATVDPNDILSELSECLINQECEEIRQIRDTKGRMAGAEKMAECLIRSDKENWPKVLQLALEKDNSKFSELWIVDKGFKRAESKADEDDGAEASSIQIFIQEEPECQNLSQNPGPPSEASSNNLHSPLKPRNYQLELALPAKKGKNTIICAPTGCGKTFVSLLICEHHLKKFPCGQKGKVVFFANQIPVYEQQATVFSRYFERLGYNIASISGATSDSVSVQHIIEDNDIIILTPQILVNNLNNGAIPSLSVFTLMIFDECHNTSKNHPYNQIMFRYLDHKLGESRDPLPQVVGLTASVGVGDAKTAEEAMQHICKLCAALDASVIATVRDNVAELEQVVYKPQKISRKVASRTSNTFKCIISQLMKETEKLAKDVSEELGKLFQIQNREFGTQKYEQWIVGVHKACSVFQMADKEEESRVCKALFLYTSHLRKYNDALIISEDAQMTDALNYLKAFFHDVREAAFDETERELTRRFEEKLEELEKVSRDPSNENPKLRDLYLVLQEEYHLKPETKTILFVKTRALVDALKKWIEENPALSFLKPGILTGRGRTNRATGMTLPAQKCVLEAFRASGDNNILIATSVADEGIDIAECNLVILYEYVGNVIKMIQTRGRGRARDSKCFLLTSSADVIEKEKANMIKEKIMNESILRLQTWDEMKFGKTVHRIQVNEKLLRDSQHKPQPVPDKENKKLLCGKCKNFACYTADIRVVETSHYTVLGDAFKERFVCKPHPKPKIYDNFEKKAKIFCAKQNCSHDWGIFVRYKTFEIPVIKIESFVVEDIVSGVQNRHSKWKDFHFERIQFDPAEMSV
For B1, the binding was “binds”.
